Results published in PubChem BioAssay AID493014 (National Center for Advancing Translational Sciences (NCATS), 2011).
The campaign covered roughly 340,000 compounds. About 170 (0.05%) were called active. Inconclusive means that the source gave no clear call. Such entries were picked first, then a sample of the others. Calls follow the shape of the dose curve; as a rule, active = well fitted inhibition curve with a large enough effect in the signal ratio, with a control signal flat (not every such curve was filed as active); inconclusive = small, poorly fitted or top-dose-only effect, or effect the other way, or a change in a side signal; inactive = flat fitted curve, though single readings scatter; the % refers to the signal ratio. Potencies beside an inconclusive call are fits to weak or partial responses and may not hold up.
Potency is read from the fitted curve at half-maximal effect.

Assay: qHTS Assay to Find Inhibitors of Chronic Active B-Cell Receptor Signaling;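 as to activity change, negative = inhibition: plate controls were basal doxycycline-induced cells for no effect and cells given 10 µM MG132 for full effect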
Conditions: ABC-DLBCL IkBa-CBG/CBR reporter, luminescence ratio (green luciferase fused to IkBa over red control in TMD8 lymphoma cells), 4 h; activity change, negative = inhibition: at 46.1 µM (top of the series)
Summary of the method: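 TMD8 human ABC-DLBCL cells with doxycycline-inducible IκBα–green luciferase fusion and unfused red luciferase, in 0.5% FBS medium; compounds up to 46 uM, 4 h at 37C. Green/red luminescence ratio, filter-overlap corrected, fitted to concentration-response curves.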
With `N#CC1=C(N)Oc2n[nH]c(-c3cccnc3)c2C1c1ccc([N+](=O)[O-])o1` (centres undefined) the Potency was inconclusive: 35.5 µM [rising, partial curve, poor fit]. For `CC(=C\C(=O)O)/C(=C/c1ccco1)C(=O)O`, the activity change, negative = inhibition was “inactive”. In the case of `O=C(NC1CCCCC1)C(c1ccncc1)N(C(=O)c1ccco1)c1ccc(F)cc1` (centres undefined), the activity change, negative = inhibition is reported as inconclusive: -16.8%. In the case of `COc1ccc(OC)c(CNC(=O)c2ccc(Sc3ccc(C)cc3)c(N)c2)c1`, the Potency is reported as inconclusive: 17.8 µM [falling, partial curve, poor fit]. With `CS(=O)(=O)c1ccc(Cl)c(NC(=O)C2CCN(S(=O)(=O)c3cccs3)CC2)c1` the activity change, negative = inhibition was inconclusive: -14.3%. With `Cc1ccc(NCc2nc3ccccc3n2C)cc1` the activity change, negative = inhibition was inconclusive: 9.38%. In the case of `CC(C)(C)OC(=O)CNC(=O)c1[nH]cnc1C(=O)Nc1ccc(CNC(=O)OC(C)(C)C)cc1`, the activity change, negative = inhibition is reported as inconclusive: 3.63%. With `O=C(Nc1ccc(N2CCOCC2)cc1)c1cccc2ccccc12` the Potency was inconclusive: 22.4 µM [falling, single point]. With `CC(NC(=O)c1cc(S(=O)(=O)N2CCOCC2)cn1C)c1ccccc1` (centres undefined) the activity change, negative = inhibition was “inactive”. In the case of `COc1cccc(C(=O)CSc2nnc(-c3cccs3)o2)c1`, the Potency is reported as inconclusive: 6.51 µM [falling, single point]. With `COc1ccc(OC)c(C(=O)COC(=O)CNC(=O)c2ccccc2)c1` the activity change, negative = inhibition was inconclusive: 3.31%. In the case of `CCN(C(=O)c1ccco1)c1nc(-c2ccc(OC)cc2)cs1`, the activity change, negative = inhibition is reported as inconclusive: 7.04%. With `CC(C)c1nc(SCC(=O)NCC2CCCO2)c2c(=O)n(C)c(=O)n(C)c2n1` (centres undefined) the activity change, negative = inhibition was inconclusive: 7.49%. With `C#CCOCCOCCOCCNc1nc(N2CCN(C(=O)CCCCCCCCCCNC(=O)[C@H](CCCCN)n3cc(C)nn3)CC2)nc(N2CCN(C(=O)CCCCCCCCCCNC(=O)[C@H](CO)n3cc(CCCSC)nn3)CC2)n1` the activity change, negative = inhibition was inconclusive: -2.76%. In the case of `COC(=O)COc1ccc(S(=O)(=O)NCc2ccco2)cc1`, the Potency is reported as inconclusive: 6.51 µM [falling, single point]. For `Cc1ccc(C(=O)Nc2cc3c(cc2C)n(C)c(=O)c(=O)n3C)cc1`, the Potency was inconclusive: 35.5 µM [falling, single point]. With `O=c1cc(N2CCN(c3ccccc3)CC2)[nH]c(=O)n1Cc1ccc(F)cc1` the activity change, negative = inhibition was “inactive”. In the case of `COc1c(/C=N/NC(=O)c2ccncc2)c(CCN(C)C(C)=O)cc2c1OCO2`, the activity change, negative = inhibition is reported as inconclusive: -0.111%. With `Cc1cc(C)n(-c2ccc(C(=O)OCC(=O)Nc3ccc(S(=O)(=O)N4CCOCC4)cc3)cc2)n1` the activity change, negative = inhibition was inconclusive: -0.303%. For `O=C(CN1N=C(c2ccc(Cl)cc2)CCC1=O)NCCc1ccc(Cl)cc1`, the Potency was inconclusive: 12.6 µM [falling, single point]. With `CNC1(C)[C@H]2CC[C@H](C2)C1(C)C` (some centres undefined) the activity change, negative = inhibition was “inactive”. For `C=CCN1C(=O)[C@H]2CCC=C[C@H]2[C@@H]1c1cccc(C)c1`, the activity change, negative = inhibition was inconclusive: 3.35%. With `COC(=O)c1c(CSc2ccc(C)c(C)c2)noc1C(=O)NCc1ccc(OC)cc1` the activity change, negative = inhibition was inconclusive: 4.83%. For `O=C(NCC1CCCO1)C1CCCN1C(=O)Nc1ccc(Cl)cc1` (centres undefined), the activity change, negative = inhibition was inconclusive: 20.5%. In the case of `OCCc1c[nH]c2ccccc12`, the activity change, negative = inhibition is reported as “inactive”. In the case of `Cc1c(C(=O)N2CCN(Cc3ccc4c(c3)OCO4)CC2)sc2ncnc(N3CCN(c4ccccc4F)CC3)c12`, the Potency is reported as inconclusive: 12.6 µM [falling, partial curve]. In the case of `Cc1ccc(SCCC(=O)OCn2nnc3ccccc3c2=O)cc1`, the activity change, negative = inhibition is reported as “inactive”. In the case of `COC(=O)c1ccc(/C=N/OCC(=O)NCCc2ccc(OC)c(OC)c2)cc1`, the activity change, negative = inhibition is reported as inconclusive: 0.316%. In the case of `CC/C(=N\NC(=O)C1CC1)c1cccc(Cl)c1`, the activity change, negative = inhibition is reported as inconclusive: 6.32%. With `Cc1cc(=O)n(Cc2ccccc2)c(O)c1C#N` the activity change, negative = inhibition was “inactive”. In the case of `O=C(c1cccs1)N(C(=O)c1cccs1)c1ccc(Br)cn1`, the Potency is reported as inconclusive: 23.1 µM [falling, single point]. With `Cc1ccc(S(=O)(=O)c2nc(S(C)(=O)=O)sc2N2CCCCC2C)cc1` (centres undefined) the Potency was inconclusive: 31.6 µM [falling, single point]. For `CC(=O)Nc1ccc(-c2csc(NC(=O)Nc3ccccc3)n2)cc1`, the activity change, negative = inhibition was inconclusive: -1.75%. For `COc1ccccc1N1CCN(CCC(=O)Nc2ccc(F)cc2)CC1`, the activity change, negative = inhibition was “inactive”. In the case of `CCn1c(=O)c([N+](=O)[O-])c(NCC(O)c2ccccc2)c2ccccc21` (centres undefined), the activity change, negative = inhibition is reported as “inactive”. With `COc1ccc(C(=O)NC(=O)Nc2cc(C)ccn2)cc1` the activity change, negative = inhibition was inconclusive: -28.1%. In the case of `CSc1ccccc1C(=O)Nc1nc2ccccc2c(=O)[nH]1`, the Potency is reported as inconclusive: 17.8 µM [falling, partial curve, poor fit]. For `O=c1cc(COc2ccc(Cl)c(Cl)c2)nc2sccn12`, the activity change, negative = inhibition was inconclusive: 13.6%. For `CCc1cccc(CC)c1NC(=O)CN1CCN(S(=O)(=O)c2ccccc2)CC1`, the activity change, negative = inhibition was inconclusive: -1.74%. For `O=c1[nH]cnc2[nH]ncc12`, the activity change, negative = inhibition was inconclusive: -0.562%. With `O=C(Nc1ccc(N2CCN(C(=O)c3ccccc3)CC2)c(Cl)c1)c1ccc(Br)o1` the activity change, negative = inhibition was inconclusive: -10%. With `Cc1sc(NC(=O)c2cc(-c3ccccc3)nc3ccccc23)c(C(N)=O)c1C` the activity change, negative = inhibition was inconclusive: -11.5%. For `Cc1cc(C(=O)C(C)Sc2cccc[n+]2[O-])c(C)n1-c1ccc(Cl)cc1` (centres undefined), the Potency was inconclusive: 25.1 µM [cytotoxic, single point]. With `CCOc1ccc(NC(=O)CC2SC(=O)N(c3ccccc3)C2=O)cc1` (centres undefined) the Potency was inconclusive: 22.4 µM [falling, single point]. In the case of `O=C(Nc1ccc2oc(=O)ccc2c1)c1ccccc1[N+](=O)[O-]`, the Potency is reported as inconclusive: 8.91 µM [falling, partial curve, poor fit]. For `S=C(Nc1ccccc1)N1CCN(C2CCCCC2)CC1`, the activity change, negative = inhibition was inconclusive: 4.71%. In the case of `CCN(C(=O)CSc1nc(N)cc(=O)[nH]1)c1c(N)n(Cc2ccccc2)c(=O)[nH]c1=O`, the activity change, negative = inhibition is reported as “inactive”. In the case of `COc1ccc(CNC(=O)CNC(=O)c2sc3ccccc3c2Cl)cc1OC`, the Potency is reported as inconclusive: 23.1 µM [falling, partial curve, poor fit]. With `CC(C)N1C(=O)C2ON(c3ccccc3)C(c3cccs3)C2C1=O` (centres undefined) the activity change, negative = inhibition was inconclusive: 5.42%.
